PubChem BioAssay AID1259326, Drosophila RNAi Screening Center – 2017
Assay: 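Autophagy genes whose loss alters cell survival in toxic zinc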. System: Drosophila S2R+ cells. Knock-down reagent: long dsRNA against Drosophila genes. Time to read-out: about 5 days (4 days of RNAi, then 1 day of zinc). Challenge: zinc chloride added to 15 mM final for one day. Detection: 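Luminescent ATP signal marks surviving cells, read after RNAi for 4 days then 15 mM zinc chloride for 1 day; z-scores are replicate means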. Direction: averaged z-score: higher = more ATP than other wells, i.e. more surviving cells, after zinc; ATP luminescence: higher = more ATP, i.e. more surviving cells. Rule for the call: 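Active if the averaged z-score exceeds 1.5 or falls under -1.5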.
The deposit covers 573 reagents; this is a part drawn at random. 39 of them (6.8%) were called active. 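All actives have raised ATP, meaning more surviving cells; in these data active calls sit at averaged z-scores near 1.5 or above.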 Raw values are not corrected between plates. No sequences are given here. Not given: the amount of reagent.

Target gene | DRSC id | averaged z-score | ATP luminescence, replicate 1 | ATP luminescence, replicate 2 | activity call
mbc | DRSC16995 | -0.727 | 83784 | 66000 | inactive
mbc | DRSC36492 | -0.445 | 74970 | 71265 | inactive
mbc | DRSC41227 | -0.264 | 61782 | 75913 | inactive
SMC1 | DRSC16846 | 0.243 | 80527 | 87646 | inactive
SMC1 | DRSC41246 | -0.306 | 65056 | 73856 | inactive
SMC1 | DRSC41247 | 0.475 | 83333 | 82848 | inactive
Cyt-c1 | DRSC10447 | -0.307 | 81549 | 79493 | inactive
Cyt-c1 | DRSC29221 | -0.0397 | 78274 | 75776 | inactive
Cyt-c1 | DRSC41190 | -0.323 | 65645 | 75153 | inactive
Mcm2 | DRSC26612 | -0.238 | 1.02e5 | 69241 | inactive
Mcm2 | DRSC35834 | -0.376 | 72938 | 69224 | inactive
Mcm2 | DRSC41228 | -0.335 | 63702 | 74198 | inactive
whd | DRSC07351 | -0.131 | 78537 | 99860 | inactive
whd | DRSC41212 | -0.0471 | 60683 | 77525 | inactive
whd | DRSC41213 | 1.37 | 92192 | 1.05e5 | inactive
alphaCOP | DRSC08706 | 2.71 | 1.45e5 | 1.37e5 | active
alphaCOP | DRSC30831 | 2.03 | 1.09e5 | 1.11e5 | active
alphaCOP | DRSC30832 | 2.71 | 1.41e5 | 1.28e5 | active
CCT2 | DRSC18415 | 0.473 | 79137 | 84644 | inactive
CCT2 | DRSC37133 | 0.225 | 87766 | 88606 | inactive
CCT2 | DRSC40662 | 0.111 | 82654 | 78623 | inactive
Atg16 | DRSC15052 | 0.959 | 1.25e5 | 89790 | inactive
Atg16 | DRSC15300 | -0.154 | 76873 | 67200 | inactive
Atg16 | DRSC41179 | -0.135 | 68971 | 72911 | inactive
beta-PheRS | DRSC15859 | 0.923 | 1.03e5 | 98728 | inactive
beta-PheRS | DRSC26218 | 0.689 | 92346 | 89190 | inactive
beta-PheRS | DRSC41194 | -0.191 | 64216 | 74884 | inactive
Tudor-SN | DRSC08581 | 0.0966 | 77594 | 95331 | inactive
Tudor-SN | DRSC41253 | -0.303 | 65708 | 70682 | inactive
Tudor-SN | DRSC41254 | -0.118 | 69773 | 76385 | inactive
UBL3 | DRSC23292 | -0.349 | 84477 | 74506 | inactive
UBL3 | DRSC37210 | 0.0406 | 82602 | 74644 | inactive
UBL3 | DRSC41255 | -0.417 | 60272 | 70510 | inactive
ACC | DRSC07249 | 0.39 | 1.02e5 | 82911 | inactive
ACC | DRSC30763 | 0.0214 | 68692 | 79360 | inactive
ACC | DRSC30764 | 0.216 | 88074 | 79764 | inactive
Atg101 | DRSC20020 | -0.431 | 72125 | 1.08e5 | inactive
Atg101 | DRSC41199 | 0.0976 | 72345 | 86188 | inactive
foxo | DRSC15463 | -0.268 | 82053 | 77165 | inactive
foxo | DRSC37549 | -0.216 | 81470 | 64189 | inactive
foxo | DRSC40808 | 0.188 | 67560 | 85261 | inactive
CG4332 | DRSC19890 | 0.25 | 1.03e5 | 81899 | inactive
CG4332 | DRSC39702 | 0.269 | 78222 | 86695 | inactive
CG4332 | DRSC41186 | -0.253 | 59552 | 80818 | inactive
polo | DRSC34464 | 2.11 | 1.09e5 | 1.20e5 | active
polo | DRSC37001 | 0.675 | 95829 | 98963 | inactive
polo | DRSC38944 | 0.634 | 1.04e5 | 71368 | inactive

Hits, among the entries above:
Target gene | DRSC id | averaged z-score | ATP luminescence, replicate 1 | ATP luminescence, replicate 2 | activity call
alphaCOP | DRSC08706 | 2.71 | 1.45e5 | 1.37e5 | active
alphaCOP | DRSC30831 | 2.03 | 1.09e5 | 1.11e5 | active
alphaCOP | DRSC30832 | 2.71 | 1.41e5 | 1.28e5 | active
polo | DRSC34464 | 2.11 | 1.09e5 | 1.20e5 | active
